In US10716305B2, “Anti-bacterial compositions” (priority 2015, dated 2020):
At least one structure is not confirmed: it was looked up by name or label, or the drawing left a doubt.

System: MRSA
Test: Comparative efficacy study, oral gavage, MRSA induction IP
Assay type: in vivo, BALB/C mice
Details: oral treatment for 7 days, Composition A 100 mg/kg, antibiotics per RX dose converted to mice
Protocol: Efficacy Study in comparison to leading anti-MRSA antibiotics was conducted in BALB/C mice.
7a. Administration Route: Oral Gavage
Group 1 (6 mice males)—MRSA Induction IP no treatment
Group 2 (6 mice males)—MRSA Induction IP—oral treatment for 7 days
Group 3 (6 mice males)—No Induction—oral treatment for 7 days
For the antibiotics the dose was as per RX prescription converted to mice Body Weights.
1—Erythromycin 250 mg/pt b.i.d. equals 2.1 mg/20 g mouse/day 300 mg total/12 mice
2—Clindamycin 150 mg/pt b.i.d. equals 1.25 mg/20 g mouse/day 200 mg total/12 mice
3—Vancomycine 250 mg/pt b.i.d. equals 2.1 mg/20 g mouse/day 300 mg total/12 mice

For `CCC[C@@H]1C[C@@H](C(=O)N[C@@H]([C@H]2O[C@H](SC)[C@H](O)[C@@H](O)[C@H]2O)[C@H](C)Cl)N(C)C1` [Clindamycin], the blood cell culture was “All samples show negative colonies”.
